This note sets out measurements from the supplement of paper PMC12067093, “Discovery and optimisation of a covalent ligand for TRIM25 and its application to targeted protein ubiquitination” (Chemical Science, 2025).

Sequences of proteins named here, by UniProt entry; tags and fusion partners are left off. A change or cut given only in a name is not applied to a line headed by its entry.
UniProt P12814, whole entry, looked up: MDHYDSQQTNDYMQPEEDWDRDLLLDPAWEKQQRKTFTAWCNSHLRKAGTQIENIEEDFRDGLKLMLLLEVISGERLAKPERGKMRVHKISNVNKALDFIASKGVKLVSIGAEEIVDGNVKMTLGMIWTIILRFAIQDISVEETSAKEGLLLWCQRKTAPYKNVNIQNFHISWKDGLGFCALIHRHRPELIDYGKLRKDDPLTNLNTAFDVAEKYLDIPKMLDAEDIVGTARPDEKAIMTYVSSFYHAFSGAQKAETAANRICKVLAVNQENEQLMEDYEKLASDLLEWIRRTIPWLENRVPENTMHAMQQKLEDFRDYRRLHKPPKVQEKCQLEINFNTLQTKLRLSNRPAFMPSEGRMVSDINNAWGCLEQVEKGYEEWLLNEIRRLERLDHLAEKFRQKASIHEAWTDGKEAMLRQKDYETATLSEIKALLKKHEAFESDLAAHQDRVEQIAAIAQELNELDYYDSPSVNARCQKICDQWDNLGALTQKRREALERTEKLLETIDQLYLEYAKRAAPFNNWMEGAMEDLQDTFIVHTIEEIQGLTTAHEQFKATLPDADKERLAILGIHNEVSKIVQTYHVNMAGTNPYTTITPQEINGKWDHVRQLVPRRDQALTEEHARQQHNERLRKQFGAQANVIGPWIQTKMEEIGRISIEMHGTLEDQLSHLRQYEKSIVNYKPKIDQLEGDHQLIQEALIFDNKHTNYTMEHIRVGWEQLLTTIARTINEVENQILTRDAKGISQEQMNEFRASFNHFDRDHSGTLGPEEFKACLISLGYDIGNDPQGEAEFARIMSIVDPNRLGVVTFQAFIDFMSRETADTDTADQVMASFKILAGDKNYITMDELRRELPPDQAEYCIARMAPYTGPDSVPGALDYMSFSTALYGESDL
UniProt Q9H2P0: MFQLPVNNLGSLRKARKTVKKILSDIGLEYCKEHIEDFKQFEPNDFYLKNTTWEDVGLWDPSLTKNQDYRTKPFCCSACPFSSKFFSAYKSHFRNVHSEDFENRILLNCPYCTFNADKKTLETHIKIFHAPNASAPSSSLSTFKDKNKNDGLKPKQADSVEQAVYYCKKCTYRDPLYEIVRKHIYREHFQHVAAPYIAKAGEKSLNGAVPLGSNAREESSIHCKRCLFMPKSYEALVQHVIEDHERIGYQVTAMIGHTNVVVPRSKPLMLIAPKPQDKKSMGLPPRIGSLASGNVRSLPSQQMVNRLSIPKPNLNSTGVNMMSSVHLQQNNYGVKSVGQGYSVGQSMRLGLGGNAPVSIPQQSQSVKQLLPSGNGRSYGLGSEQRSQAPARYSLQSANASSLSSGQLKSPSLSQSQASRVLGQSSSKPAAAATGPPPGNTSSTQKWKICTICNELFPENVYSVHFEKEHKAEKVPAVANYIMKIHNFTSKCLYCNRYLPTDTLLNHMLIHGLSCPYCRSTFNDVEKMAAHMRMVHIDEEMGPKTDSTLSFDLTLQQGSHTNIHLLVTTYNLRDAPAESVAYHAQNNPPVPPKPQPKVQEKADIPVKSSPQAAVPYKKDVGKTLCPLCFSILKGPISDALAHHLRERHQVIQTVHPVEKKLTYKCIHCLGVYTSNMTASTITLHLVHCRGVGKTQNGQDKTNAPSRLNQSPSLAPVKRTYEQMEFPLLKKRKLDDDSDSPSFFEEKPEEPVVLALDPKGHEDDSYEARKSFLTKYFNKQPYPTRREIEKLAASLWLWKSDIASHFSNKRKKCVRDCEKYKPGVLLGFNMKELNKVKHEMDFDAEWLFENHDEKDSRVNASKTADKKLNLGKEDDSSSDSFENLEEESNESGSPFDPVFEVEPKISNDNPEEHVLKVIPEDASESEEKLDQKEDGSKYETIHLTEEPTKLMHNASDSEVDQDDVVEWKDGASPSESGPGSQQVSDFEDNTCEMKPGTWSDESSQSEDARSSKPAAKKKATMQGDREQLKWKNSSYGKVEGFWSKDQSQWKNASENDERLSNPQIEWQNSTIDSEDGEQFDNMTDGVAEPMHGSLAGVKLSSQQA
UniProt P35612: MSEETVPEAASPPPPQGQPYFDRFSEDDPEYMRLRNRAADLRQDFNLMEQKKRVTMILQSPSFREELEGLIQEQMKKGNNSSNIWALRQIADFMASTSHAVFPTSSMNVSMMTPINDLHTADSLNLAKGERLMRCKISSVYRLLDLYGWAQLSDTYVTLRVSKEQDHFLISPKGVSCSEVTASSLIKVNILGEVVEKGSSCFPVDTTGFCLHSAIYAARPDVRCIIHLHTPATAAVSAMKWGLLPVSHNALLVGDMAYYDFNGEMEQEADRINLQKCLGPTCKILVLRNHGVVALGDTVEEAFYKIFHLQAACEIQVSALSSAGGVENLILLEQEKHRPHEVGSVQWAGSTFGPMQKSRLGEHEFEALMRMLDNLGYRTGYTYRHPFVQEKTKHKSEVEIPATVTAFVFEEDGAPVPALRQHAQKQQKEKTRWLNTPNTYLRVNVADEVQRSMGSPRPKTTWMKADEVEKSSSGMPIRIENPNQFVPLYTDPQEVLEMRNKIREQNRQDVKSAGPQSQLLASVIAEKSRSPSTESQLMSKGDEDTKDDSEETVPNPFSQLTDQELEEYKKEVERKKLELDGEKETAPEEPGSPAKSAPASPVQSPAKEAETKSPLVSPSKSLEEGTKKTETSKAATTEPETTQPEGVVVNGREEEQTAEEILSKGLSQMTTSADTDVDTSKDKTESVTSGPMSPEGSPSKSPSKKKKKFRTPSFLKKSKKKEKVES
UniProt O96019, whole entry, looked up: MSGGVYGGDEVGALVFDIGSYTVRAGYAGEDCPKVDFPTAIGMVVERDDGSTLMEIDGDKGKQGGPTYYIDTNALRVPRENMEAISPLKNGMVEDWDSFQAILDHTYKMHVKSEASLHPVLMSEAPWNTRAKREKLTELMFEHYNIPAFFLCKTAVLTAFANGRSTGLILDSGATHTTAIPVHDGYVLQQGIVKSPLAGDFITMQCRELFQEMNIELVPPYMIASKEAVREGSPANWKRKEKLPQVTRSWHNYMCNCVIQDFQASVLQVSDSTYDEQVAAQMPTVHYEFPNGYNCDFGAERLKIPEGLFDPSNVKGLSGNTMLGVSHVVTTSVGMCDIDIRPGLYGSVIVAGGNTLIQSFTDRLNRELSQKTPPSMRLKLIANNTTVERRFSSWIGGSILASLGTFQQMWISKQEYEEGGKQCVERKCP
UniProt O14672: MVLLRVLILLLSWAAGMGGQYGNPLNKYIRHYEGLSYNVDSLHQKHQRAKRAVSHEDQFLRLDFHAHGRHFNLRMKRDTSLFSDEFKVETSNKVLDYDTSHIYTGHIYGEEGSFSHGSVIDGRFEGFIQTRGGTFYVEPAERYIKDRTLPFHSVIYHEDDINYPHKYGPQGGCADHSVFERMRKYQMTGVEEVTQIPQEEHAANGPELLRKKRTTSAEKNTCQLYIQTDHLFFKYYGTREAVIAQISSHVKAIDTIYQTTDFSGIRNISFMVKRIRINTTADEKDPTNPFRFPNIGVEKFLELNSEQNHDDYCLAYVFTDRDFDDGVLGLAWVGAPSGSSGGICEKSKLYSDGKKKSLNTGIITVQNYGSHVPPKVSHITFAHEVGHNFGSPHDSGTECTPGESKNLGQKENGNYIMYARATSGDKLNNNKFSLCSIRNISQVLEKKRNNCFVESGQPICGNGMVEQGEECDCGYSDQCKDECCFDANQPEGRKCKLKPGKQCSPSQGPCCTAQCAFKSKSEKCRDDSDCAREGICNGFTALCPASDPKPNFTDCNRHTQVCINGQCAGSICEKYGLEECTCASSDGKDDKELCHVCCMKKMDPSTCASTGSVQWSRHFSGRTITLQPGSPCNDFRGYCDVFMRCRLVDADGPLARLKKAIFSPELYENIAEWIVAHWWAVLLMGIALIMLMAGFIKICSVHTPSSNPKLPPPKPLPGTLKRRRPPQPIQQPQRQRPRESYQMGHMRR
UniProt Q53H12: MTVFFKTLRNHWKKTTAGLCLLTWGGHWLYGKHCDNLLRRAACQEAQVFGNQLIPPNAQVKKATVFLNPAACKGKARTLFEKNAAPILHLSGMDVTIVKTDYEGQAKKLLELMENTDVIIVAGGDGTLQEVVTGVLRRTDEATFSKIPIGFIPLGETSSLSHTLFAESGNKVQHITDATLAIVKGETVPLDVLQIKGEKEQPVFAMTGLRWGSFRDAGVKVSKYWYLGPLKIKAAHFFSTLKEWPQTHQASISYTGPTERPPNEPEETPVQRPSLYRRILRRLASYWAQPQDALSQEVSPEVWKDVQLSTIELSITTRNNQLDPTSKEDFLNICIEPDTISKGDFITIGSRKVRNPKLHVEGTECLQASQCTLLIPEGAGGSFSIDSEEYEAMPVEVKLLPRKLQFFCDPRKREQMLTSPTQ
UniProt Q96MI9: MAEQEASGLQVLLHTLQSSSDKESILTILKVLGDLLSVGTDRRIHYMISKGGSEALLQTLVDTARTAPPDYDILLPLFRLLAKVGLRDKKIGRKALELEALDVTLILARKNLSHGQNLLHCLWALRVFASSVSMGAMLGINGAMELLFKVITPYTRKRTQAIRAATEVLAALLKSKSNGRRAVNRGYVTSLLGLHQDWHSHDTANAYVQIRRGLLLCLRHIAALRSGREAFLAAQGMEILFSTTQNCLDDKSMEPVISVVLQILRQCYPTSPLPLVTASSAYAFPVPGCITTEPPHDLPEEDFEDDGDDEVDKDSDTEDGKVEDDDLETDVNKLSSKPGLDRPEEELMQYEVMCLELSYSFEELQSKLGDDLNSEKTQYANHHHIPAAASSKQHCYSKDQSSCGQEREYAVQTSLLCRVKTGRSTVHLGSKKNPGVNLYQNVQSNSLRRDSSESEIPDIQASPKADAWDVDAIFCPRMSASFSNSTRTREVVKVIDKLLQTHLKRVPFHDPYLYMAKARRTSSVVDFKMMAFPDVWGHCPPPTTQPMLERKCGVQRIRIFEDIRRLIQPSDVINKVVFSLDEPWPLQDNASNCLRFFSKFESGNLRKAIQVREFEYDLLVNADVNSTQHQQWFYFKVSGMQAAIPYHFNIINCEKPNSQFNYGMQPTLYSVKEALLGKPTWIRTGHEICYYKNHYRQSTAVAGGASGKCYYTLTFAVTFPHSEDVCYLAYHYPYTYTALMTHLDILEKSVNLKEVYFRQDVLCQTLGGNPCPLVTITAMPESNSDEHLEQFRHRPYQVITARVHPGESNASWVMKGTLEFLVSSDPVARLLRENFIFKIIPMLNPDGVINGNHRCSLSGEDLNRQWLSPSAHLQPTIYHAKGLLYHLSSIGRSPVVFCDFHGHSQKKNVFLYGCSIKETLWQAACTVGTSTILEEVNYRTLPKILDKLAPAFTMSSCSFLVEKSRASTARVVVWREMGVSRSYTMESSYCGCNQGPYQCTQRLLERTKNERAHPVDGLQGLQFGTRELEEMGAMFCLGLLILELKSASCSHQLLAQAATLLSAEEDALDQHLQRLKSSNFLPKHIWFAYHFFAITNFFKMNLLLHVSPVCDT
UniProt P11766: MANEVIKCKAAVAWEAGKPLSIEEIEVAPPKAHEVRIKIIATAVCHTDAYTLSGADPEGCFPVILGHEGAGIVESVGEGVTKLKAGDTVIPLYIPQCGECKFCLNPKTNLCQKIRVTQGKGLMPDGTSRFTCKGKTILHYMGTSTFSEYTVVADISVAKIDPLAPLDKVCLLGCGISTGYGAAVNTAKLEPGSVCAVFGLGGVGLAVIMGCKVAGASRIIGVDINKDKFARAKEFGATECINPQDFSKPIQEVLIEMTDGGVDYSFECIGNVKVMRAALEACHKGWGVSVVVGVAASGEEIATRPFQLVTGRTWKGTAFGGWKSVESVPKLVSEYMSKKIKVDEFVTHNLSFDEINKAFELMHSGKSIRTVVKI
UniProt O60488: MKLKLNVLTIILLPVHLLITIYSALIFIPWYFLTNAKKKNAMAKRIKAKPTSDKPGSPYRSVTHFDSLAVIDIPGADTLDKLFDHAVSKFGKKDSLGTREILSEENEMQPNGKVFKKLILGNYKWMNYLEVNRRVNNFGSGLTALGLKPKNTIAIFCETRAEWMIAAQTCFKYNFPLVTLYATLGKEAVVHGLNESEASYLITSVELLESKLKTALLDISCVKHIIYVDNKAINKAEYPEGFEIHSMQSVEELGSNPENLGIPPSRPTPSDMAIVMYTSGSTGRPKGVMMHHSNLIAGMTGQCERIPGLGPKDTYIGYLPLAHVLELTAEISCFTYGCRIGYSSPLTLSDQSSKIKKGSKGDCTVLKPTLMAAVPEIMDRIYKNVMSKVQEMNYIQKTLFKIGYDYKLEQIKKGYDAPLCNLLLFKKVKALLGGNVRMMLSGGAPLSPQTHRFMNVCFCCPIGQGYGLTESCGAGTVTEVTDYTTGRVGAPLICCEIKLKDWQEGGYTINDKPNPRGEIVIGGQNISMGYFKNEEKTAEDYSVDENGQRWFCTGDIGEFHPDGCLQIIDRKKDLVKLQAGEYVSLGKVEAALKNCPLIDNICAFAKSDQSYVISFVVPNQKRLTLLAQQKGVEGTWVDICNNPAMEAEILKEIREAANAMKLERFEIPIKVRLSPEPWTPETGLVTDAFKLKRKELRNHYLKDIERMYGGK

The list shows a part of the results.
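Further: competitive profiling in live THP-1 cells: cysteine peptides tagged with an iodoacetamide desthiobiotin (IA-DTB) probe, intensity after compound treatment relative to DMSO-treated cells.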

Compound in one assay: Cc1cc(ccc1-c1ccccc1)C(=O)N1CCCN(CC1)C(=O)CCl [compound 10]
As to the kind of experiment: probe-labelled cysteine peptide fold change vs DMSO (competition) (log2 fold change); higher = less target engagement (more negative = stronger competition). The settings on record: 10 µM; THP-1; incubation time: 4 h.
In the case of “ADGRL2_O95490_136_YLEVQYECVPYIFVCPGTLK (UniProt O95490)”, the “probe-labelled cysteine peptide fold change” value was 0.0252.
Still for that read-out and setting: the same measure for “ADSS_P30520_18_AFAETYPAASSLPNGDCGRPR (UniProt P30520)”: -0.346; for “ACTN1_P12814_180_DGLGFCALIHR (UniProt P12814)”: 0.0677.
The same measure, in the same setting: in the case of “ADNP_Q9H2P0_76+79_TKPFCCSACPFSSK (UniProt Q9H2P0)” it was -0.203; in that of “ACOX3_O15254_220_LCVPGDQCHGLHPFIVQIRDPK (UniProt O15254)”, -0.277; in that of “ACTN4_O43707_499_ICDQWDALGSLTHSRR (UniProt O43707)”, 0.0906.
Same read-out and setting: the same measure for “ADD2_P35612_210_GSSCFPVDTTGFCLHSAIYAARPDVR (UniProt P35612)”: -0.237; for “ACTN4_O43707_793_ACLISLGYDVENDRQGEAEFNR (UniProt O43707)”: 0.11.
On to “ADPGK_Q9BRR6_470_EGISFHFTPVLVCKDPIR (UniProt Q9BRR6)”, for which the “probe-labelled cysteine peptide fold change” value is -0.0963.
With “ACTR3_P61158_408_DYEEIGPSICR (UniProt P61158)”, the “probe-labelled cysteine peptide fold change” value is 0.0427.
In the case of “ADGRA2_Q96PE1_1147_LTNLQLAQSQVCEAGAAAGGEGEPEPAGTR (UniProt Q96PE1)”, the “probe-labelled cysteine peptide fold change” value was -0.512.
Same read-out and setting: in the case of “ADPGK_Q9BRR6_470_EGISFHFTPVLVCK (UniProt Q9BRR6)” it was 0.181.
For “AFF4_Q9UHB7_315_IPSQPLDASASGDVSCVDEILK (UniProt Q9UHB7)”, the “probe-labelled cysteine peptide fold change” value was -0.259.
On the same count and under the same terms, the same measure for “ACTL6A_O96019_206_SPLAGDFITMQCR (UniProt O96019)”: 0.231.
Turning to “ADAM10_O14672_484_DECCFDANQPEGR (UniProt O14672)”, the “probe-labelled cysteine peptide fold change” value was -0.216.
On the same count and under the same terms, the same measure for AGK_Q53H12_34_HCDNLLR (UniProt Q53H12): -0.149.
The same measure, in the same setting: the same measure for “ADNP_Q9H2P0_112_ILLNCPYCTFNADKK (UniProt Q9H2P0)”: 0.0542; for “AGA_P20933_286_RGEDPTIACQK (UniProt P20933)”: -0.0749; for “AGBL1_Q96MI9_809_CSLSGEDLNR (UniProt Q96MI9)”: -0.0904.
Same read-out and setting: the same measure for “ADH5_P11766_170+174_VCLLGCGISTGYGAAVNTAK (UniProt P11766)”: 0.0173.

Staying with this assay, now noted: 50 µM; THP-1; incubation time: 4 h.
For the target “ADAP1_O75689_101_VPSFYYRPTPSDCQLLR (UniProt O75689)”, the “probe-labelled cysteine peptide fold change” value was 0.0541.
With “ACTN1_P12814_476_CQKICDQWDNLGALTQKRR (UniProt P12814)”, the “probe-labelled cysteine peptide fold change” value came to 0.0709.
As for “ACTR3_P61158_394_YAVWFGGSMLASTPEFYQVCHTKK (UniProt P61158)”, the “probe-labelled cysteine peptide fold change” value is -0.43.
As for “ACTN4_O43707_879_RELPPDQAEYCIAR (UniProt O43707)”, the “probe-labelled cysteine peptide fold change” value is 0.141.
Same read-out and setting: in the case of “ADCY9_O60503_654_SEAGAEGGAPQNGCQDEHK (UniProt O60503)” it was -0.502; in that of “ACSL4_O60488_170_AEWMIAAQTCFK (UniProt O60488)”, 0.409; in that of “ACSL1_P33121_132_QVAELSECIGSALIQK (UniProt P33121)”, 0.0843.
“ACSL4_O60488_221_TALLDISCVK (UniProt O60488)”: the “probe-labelled cysteine peptide fold change” value came out at 0.0446.
Still for that read-out and setting: the same measure for “ADSL_P30566_113_AAGIIHLGATSCYVGDNTDLIILR (UniProt P30566)”: 0.352.
Still for that read-out and setting: in the case of “ACTR2_P61160_221_LCYVGYNIEQEQK (UniProt P61160)” it was 0.0528; in that of “ADK_P55263_353_TGCTFPEKPDFH (UniProt P55263)”, -0.472; in that of “AGL_P35573_486_ELICWGDSVK (UniProt P35573)”, 0.033.
For the target “ADAM10_O14672_582_YGLEECTCASSDGKDDK (UniProt O14672)”, the “probe-labelled cysteine peptide fold change” value is -0.0537.
On the same count and under the same terms, the same measure for “ACTR8_Q9H981_179_WTNTSHHPEYLVGEEALYVNPLDCYNIHWPIR (UniProt Q9H981)”: 0.232; for “ADGRA2_Q96PE1_194+196_VVDLGTEFLTCDCHLR (UniProt Q96PE1)”: -0.153; for “ACY1_Q03154_116_CVSIQYLEAVR (UniProt Q03154)”: 0.329.
Same read-out and setting: the same measure for “ADGRL2_O95490_136_YLEVQYECVPYIFVCPGTLK (UniProt O95490)”: 0.148; for “ADSS_P30520_18_AFAETYPAASSLPNGDCGRPR (UniProt P30520)”: -0.00731.
“ACTN1_P12814_180_DGLGFCALIHR (UniProt P12814)”: the “probe-labelled cysteine peptide fold change” value was determined as 0.0339.
Consider “ADNP_Q9H2P0_76+79_TKPFCCSACPFSSK (UniProt Q9H2P0)”, for which the “probe-labelled cysteine peptide fold change” value is -0.81.
Still for that read-out and setting: in the case of “ACOX3_O15254_220_LCVPGDQCHGLHPFIVQIRDPK (UniProt O15254)” it was -0.2; in that of “ACTN4_O43707_499_ICDQWDALGSLTHSRR (UniProt O43707)”, -0.0707.
For the target “ADD2_P35612_210_GSSCFPVDTTGFCLHSAIYAARPDVR (UniProt P35612)”, the “probe-labelled cysteine peptide fold change” value was -0.0743.
Same read-out and setting: in the case of “ACTN4_O43707_793_ACLISLGYDVENDRQGEAEFNR (UniProt O43707)” it was 0.0633; in that of “ADPGK_Q9BRR6_470_EGISFHFTPVLVCKDPIR (UniProt Q9BRR6)”, -0.485.
On the same count and under the same terms, in the case of “ACTR3_P61158_408_DYEEIGPSICR (UniProt P61158)” it was -0.00255.
Still for that read-out and setting: in the case of “ADGRA2_Q96PE1_1147_LTNLQLAQSQVCEAGAAAGGEGEPEPAGTR (UniProt Q96PE1)” it was -0.0968; in that of “ADPGK_Q9BRR6_470_EGISFHFTPVLVCK (UniProt Q9BRR6)”, 0.234.
As to “AFF4_Q9UHB7_315_IPSQPLDASASGDVSCVDEILK (UniProt Q9UHB7)”, the “probe-labelled cysteine peptide fold change” value is -0.257.
On the same count and under the same terms, the same measure for “ACTL6A_O96019_206_SPLAGDFITMQCR (UniProt O96019)”: 0.221; for “ADAM10_O14672_484_DECCFDANQPEGR (UniProt O14672)”: -0.124; for AGK_Q53H12_34_HCDNLLR (UniProt Q53H12): 0.124.
For “ADNP_Q9H2P0_112_ILLNCPYCTFNADKK (UniProt Q9H2P0)”, the “probe-labelled cysteine peptide fold change” value came out at 0.0297.
Same read-out and setting: the same measure for “AGA_P20933_286_RGEDPTIACQK (UniProt P20933)”: 0.294; for “AGBL1_Q96MI9_809_CSLSGEDLNR (UniProt Q96MI9)”: -0.0247; for “ADH5_P11766_170+174_VCLLGCGISTGYGAAVNTAK (UniProt P11766)”: -0.195.
